# Measurements from PubChem BioAssay AID504834 (National Center for Advancing Translational Sciences (NCATS), 2011).
# Screen size: about 320,000 compounds; about 22,000 (6.9%) were called active. The shares of active, inactive and inconclusive entries below differ from those in the screen. The call rests on the fitted dose curve; in most records, active means well fitted inhibition curve with a large enough effect; inconclusive means small, poorly fitted or top-dose-only effect, or another doubt; inactive means no such curve, though single readings can be large or run the other way. Potencies beside an inconclusive call are fits to weak or partial responses and may not hold up.
# Assay: Primary qHTS for delayed death inhibitors of the malarial parasite plastid, 96 hour incubation
# Details: P. falciparum luciferase reporter growth; series mostly up to 28.7 µM
# Procedure, shortened: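 Cell-based qHTS: luciferase-tagged P. falciparum in erythrocytes (2% hematocrit, 0.05% parasitemia final) incubated with compounds for 96 hours, 37 C, 5% CO2; luciferase detection reagent then added and luminescence measured.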
# Potency means the concentration at half of the fitted maximal effect.
row,Structure (SMILES),Potency
1,Cc1cc(NC(=O)CSc2nnc(-c3ccncc3)n2-c2ccccc2)no1,"inconclusive: 13.1 µM [inhibitor, single point]"
2,COc1ccc(/C=C2/SC(=S)N(CCCC(=O)Nc3cccc(O)c3)C2=O)cc1,"inconclusive: 10.4 µM [inhibitor, partial curve]"
3,Cc1ccc(CNC(=O)c2ccc3nc4[nH]c5ccccc5c4nc3c2)cc1,inactive
4,COc1ccc(NC(=O)C(NC(=O)c2ccc(C)cc2)c2ccccc2)cc1 (stereo not given),"inconclusive: 3.29 µM [inhibitor, single point]"
5,CNc1c(-n2cc(C(=O)OC)c(C(=O)OC)c2C(=O)OC)c(=O)n(C)c(=O)n1C,inactive
6,COc1ccc(-c2ccc(CNCCCN3CCOCC3)o2)cc1Cl,"inconclusive: 14.7 µM [inhibitor, single point]"
7,N#Cc1c(-c2ccccc2)ccn(Cc2cccc(Cl)c2)c1=O,active: 13.1 µM
8,COc1cc(OC)cc(C(=O)Nc2ccccc2-c2nnn(CC(=O)Nc3cc(C)on3)n2)c1,inactive
9,Cc1ccc(O)c(C(CC(=O)NC(C)C)c2ccccc2)c1 (stereo not given),active: 13.1 µM
10,Cc1ccccc1Nc1nc(N)c2ccccc2n1,"inconclusive: 2.94 µM [inhibitor, full curve]"
11,COc1ccc(N2CCN(C(=O)CSc3nnc(NC(=O)C4CC4)s3)CC2)cc1,inactive
12,O=C(C1CCC(C(=O)N2CCCCC2)CC1)N1CCCCC1 (stereo not given),inactive
13,O=C(CCC(=O)c1cccs1)NCC(c1ccc(F)cc1)N1CCOCC1 (stereo not given),"inconclusive: 18.5 µM [inhibitor, single point]"
14,CCC(CC)C(=O)N1N=C(c2ccc(NS(C)(=O)=O)cc2)CC1c1ccc(C)cc1 (stereo not given),active: 5.22 µM
15,O=C(CCSCc1cccc(Cl)c1)NC1CCCC1,"inconclusive: 9.28 µM [inhibitor, single point]"
16,CC(Sc1nc2ccccc2c(=O)n1CC1CCCO1)C(=O)Nc1ccc(S(N)(=O)=O)cc1 (stereo not given),"inconclusive: 11.7 µM [inhibitor, single point]"
17,CCCc1c(O)nc(SCC(=O)NCc2ccco2)[nH]c1=O,inactive
18,CCOC(=O)c1c(NC(=O)C(C)N2CCN(S(=O)(=O)c3cccs3)CC2)sc2c1CCC(C)C2 (stereo not given),"inconclusive: 4.15 µM [inhibitor, single point]"
19,Cc1c(C)c2ccc(OCC(=O)N3CCN(C(=O)C4COc5ccccc5O4)CC3)cc2oc1=O (stereo not given),"inconclusive: 13.1 µM [inhibitor, single point]"
20,O=S(=O)(NCc1ccc(F)cc1)c1ccc(-n2cccn2)cc1,"inconclusive: 0.738 µM [inhibitor, full curve, poor fit]"
21,C/C(=C\C(=O)c1ccccc1)NCc1ccc(F)cc1,"inconclusive: 4.15 µM [inhibitor, single point]"
22,CC(C)C[C@@H](C(=O)NCc1ccco1)N1C(=O)N2CCc3c([nH]c4ccccc34)[C@@]2(C)C1=O,"inconclusive: 18.5 µM [inhibitor, single point]"
23,C(=N\Nc1nc(Nc2ccccc2)nc(N2CCOCC2)n1)/c1c[nH]c2ccccc12,"inconclusive: 18.5 µM [inhibitor, single point]"
24,CCCn1nnc(NC(=S)NC(=O)c2ccc(-c3ccc(Br)cc3)o2)n1,"inconclusive: 11.7 µM [inhibitor, single point]"

row,Structure (SMILES),Potency
1,C=C1c2cccc(O)c2C(O)=C2C(=O)[C@]3(O)C(O)=C(C(N)=O)C(=O)[C@@H](N(C)C)[C@@H]3[C@@H](O)[C@H]12,active: 0.465 µM
2,CN1CCN(C(=S)SCC(=O)Nc2ccc(Cl)cc2C(=O)c2ccccc2)CC1,"inconclusive: 2.08 µM [inhibitor, partial curve, poor fit]"
3,Cc1cc(C(=O)COC(=O)c2ccccc2O)c(C)n1CC1CCCO1 (stereo not given),inactive
4,O=C(O)C1CCCCC1C(=O)Nc1ccc(-c2ccccc2)cc1 (stereo not given),inactive
5,CCCNC(=O)NC(=O)CSc1ccc(C)cc1C,inactive
6,COC(=O)C1=C(C)N(Cc2ccccc2)C(=NCc2ccc(OC)cc2)N[C@H]1c1ccc(Br)cc1,"inconclusive: 0.131 µM [inhibitor, full curve, poor fit]"
7,C[N+]1(CC(=O)OCCCC2CCCCC2)CCCC1,"inconclusive: 9.28 µM [inhibitor, single point]"
8,O=C(COC(=O)c1ccccc1O)Nc1ccc(N2CCOCC2)cc1,inactive
9,CCN(CCCNC(=O)C1CCN(S(=O)(=O)N2CCOCC2)CC1)c1cccc(C)c1,"inconclusive: 20.8 µM [inhibitor, single point]"
10,Cc1ccccc1Oc1ccc(Oc2ccccc2C)nn1,inactive
11,CCC1CC(CSc2ncn[nH]2)OC1=O (stereo not given),"inconclusive: 14.7 µM [inhibitor, single point]"
12,Cc1c(C(=O)OCC(=O)Nc2c(C)n(C)n(-c3ccccc3)c2=O)oc2ccccc12,"inconclusive: 1.47 µM [inhibitor, partial curve, poor fit]"
13,Cc1c(Cl)cccc1NC(=S)NC1CCCC1,"inconclusive: 14.7 µM [inhibitor, partial curve, poor fit]"
14,S=c1[nH]c(-c2ccc(Cl)cc2)cs1,inactive
15,O=C(N/N=C/C(Br)=C\c1ccccc1)c1ccc2nc[nH]c2c1,"inconclusive: 18.5 µM [inhibitor, single point]"
16,COC(=O)C1=C(C)NC(C)=C(C(=O)OCC2CCCO2)C1c1ccc(Cl)c([N+](=O)[O-])c1 (stereo not given),"inconclusive: 13.1 µM [inhibitor, partial curve, poor fit]"
17,CN(CC(=O)Nc1ccc(Cl)c(C(F)(F)F)c1)C(=O)C1CC(=O)N(Cc2ccco2)C1 (stereo not given),"inconclusive: 7.38 µM [inhibitor, single point]"
18,Cc1nc2cc(S(=O)(=O)N(C)C)ccc2n1-c1ccccc1,"inconclusive: 3.7 µM [inhibitor, partial curve, poor fit]"
19,Clc1ccccc1CO/N=C1\CCCc2nonc21,"inconclusive: 4.65 µM [inhibitor, partial curve, poor fit]"
20,Cc1ccc(NC(=O)CSc2nccn2C)cc1S(=O)(=O)N1CCOCC1,"inconclusive: 7.38 µM [inhibitor, partial curve]"
21,CCNC(=O)COc1ncnc2scc(-c3ccc(F)cc3)c12,inactive
22,O=[N+]([O-])c1ccccc1S(=O)(=O)Oc1ccccc1/C=N/n1cnnc1,active: 1.85 µM
23,O=C1c2ccccc2NC(c2ccco2)N1NS(=O)(=O)c1ccccc1 (stereo not given),"inconclusive: 7.38 µM [inhibitor, partial curve, poor fit]"
24,COc1cccc(/C=N/n2nnnc2N)c1O,inactive

row,Structure (SMILES),Potency
1,COc1ccc(CCNC(=O)C(=O)NCC2OCCN2S(=O)(=O)c2cc(F)ccc2F)cc1 (stereo not given),"inconclusive: 0.0586 µM [inhibitor, full curve, poor fit]"
2,Cc1ccc(N=C2C(=O)Nc3c(C)cccc32)cc1,active: 10.4 µM
3,Cc1cccc(Sc2nc(-c3ccccc3)ccc2C#N)c1,"inconclusive: 0.329 µM [inhibitor, full curve, poor fit]"
4,CCCCCC(=O)Nc1cccc(C2=NOC3(C2)C[C@@H](C(N)=O)N(C(=O)C2(C)CC2)C3)c1 (stereo not given in full),inactive
5,CCOc1ccccc1C(=O)Nc1ccc(S(=O)(=O)Nc2nccc(C)n2)cc1,active: 13.1 µM
6,NC(=O)C(c1ccc(Br)cc1)c1ccc(C(=O)c2ccccc2)cc1 (stereo not given),inactive
7,CCOC(=O)c1c(C)[nH]c(C(=O)OCC(=O)N2c3ccccc3CC2C)c1C (stereo not given),"inconclusive: 0.0329 µM [inhibitor, full curve, poor fit]"
8,CCN(CC)S(=O)(=O)c1cc(OC)c(C)cc1C,inactive
9,O=C(CN1C(=O)NC2(CCCCC2)C1=O)NCCC1=CCCCC1,"inconclusive: 9.28 µM [inhibitor, partial curve]"
10,CN(C)c1ccc(NC(=O)c2cn(-c3ccccc3)nc2-c2cccs2)cc1,inactive
11,CC(C)=CCC/C(C)=C/CCC(C)NCCN1CCNCC1 (stereo not given),"inconclusive: 2.62 µM [inhibitor, partial curve, poor fit]"
12,CCC(=NCCc1c(C)[nH]c2ccc(C)cc12)C1=C(O)CC(c2ccccc2)CC1=O (stereo not given),"inconclusive: 18.5 µM [inhibitor, single point]"
13,Cc1ccc(S(=O)(=O)Nc2ccccc2F)cc1C(=O)NNC(=O)c1ccccc1O,inactive
14,CCNc1nc(Cl)nc(NNC(=O)C(C)Oc2ccccc2)n1 (stereo not given),"inconclusive: 9.28 µM [inhibitor, single point]"
15,COc1ccc(OC)c(Nc2ncnc3c2cnn3-c2cccc(C)c2)c1,"inconclusive: 2.94 µM [inhibitor, single point]"
16,CC(C)c1cc(NCCCN2CCOCC2)n2c(nc3ccccc32)c1C#N,"inconclusive: 4.65 µM [inhibitor, partial curve]"
17,CC/C(Cc1ccccc1)=N\NC(=O)c1cc([N+](=O)[O-])cc([N+](=O)[O-])c1,inactive
18,O=C(OCC1OC(n2cc(Br)c(=O)[nH]c2=O)C(Br)C1O)c1ccccc1 (stereo not given),"inconclusive: 1.31 µM [inhibitor, full curve]"
19,Cc1ccc(C2=NN(C(=O)c3cccs3)C(c3ccccc3O)C2)cc1 (stereo not given),inactive
20,O=C(C1=C[C@H](c2ccccc2)C[C@H](OCc2ccc(CO)cc2)O1)N1CCN(Cc2ccc3c(c2)OCO3)CC1,active: 13.1 µM
21,Cc1cccc(NC(=O)C[n+]2cccc(C)c2)c1,active: 0.657 µM
22,Cc1cc(C)n(C(=O)CNC(=O)/C=C/c2ccccc2)n1,"inconclusive: 4.15 µM [inhibitor, partial curve]"

# Four neighbouring entries from above:
row,Structure (SMILES),Potency
15,COc1ccc(OC)c(Nc2ncnc3c2cnn3-c2cccc(C)c2)c1,"inconclusive: 2.94 µM [inhibitor, single point]"
16,CC(C)c1cc(NCCCN2CCOCC2)n2c(nc3ccccc32)c1C#N,"inconclusive: 4.65 µM [inhibitor, partial curve]"
17,CC/C(Cc1ccccc1)=N\NC(=O)c1cc([N+](=O)[O-])cc([N+](=O)[O-])c1,inactive
18,O=C(OCC1OC(n2cc(Br)c(=O)[nH]c2=O)C(Br)C1O)c1ccccc1 (stereo not given),"inconclusive: 1.31 µM [inhibitor, full curve]"
